The list shows a part of the results, in another mix than the full data.
compound: COC(=O)C#Cc1ccccc1 [methyl 3-phenylpropiolate]; test: log2 ratio of iodoacetamide-alkyne labeling of the cysteine site, DMSO over compound (competition); higher = stronger covalent engagement of the cysteine by the compound, active = 1 or more; conditions: 500 µM; treatment time 1 h; system: HEK293T cell lysate
Summary of the method: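 Electrophile (500 µM) or vehicle was added to HEK293T lysate (2 mg/mL) for 1 h at ambient temperature before iodoacetamide alkyne labelling (1 h) and click coupling to sCIP-TMT reagents. After pooling, overnight trypsin digestion at 37 °C, streptavidin enrichment and acid elution, peptides were measured by Orbitrap Eclipse LC-MS/MS with FAIMS and quantified in FragPipe. Each cysteine's log2 competition ratio compares mean control-channel with mean compound-channel reporter intensity, control over compound. Data came from duplicate channels across three replicates, excluding cysteines quantified in only one replicate.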

The chains behind the UniProt entries cited, without tags or fusion partners. Where a name states a change or a piece, a line headed by the entry shows the natural chain unless it says otherwise.
UniProt O75348, whole entry, looked up: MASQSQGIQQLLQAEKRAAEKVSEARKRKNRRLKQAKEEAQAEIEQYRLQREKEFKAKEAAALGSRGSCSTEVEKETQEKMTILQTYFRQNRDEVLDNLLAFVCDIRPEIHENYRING
UniProt O75376, whole entry, looked up: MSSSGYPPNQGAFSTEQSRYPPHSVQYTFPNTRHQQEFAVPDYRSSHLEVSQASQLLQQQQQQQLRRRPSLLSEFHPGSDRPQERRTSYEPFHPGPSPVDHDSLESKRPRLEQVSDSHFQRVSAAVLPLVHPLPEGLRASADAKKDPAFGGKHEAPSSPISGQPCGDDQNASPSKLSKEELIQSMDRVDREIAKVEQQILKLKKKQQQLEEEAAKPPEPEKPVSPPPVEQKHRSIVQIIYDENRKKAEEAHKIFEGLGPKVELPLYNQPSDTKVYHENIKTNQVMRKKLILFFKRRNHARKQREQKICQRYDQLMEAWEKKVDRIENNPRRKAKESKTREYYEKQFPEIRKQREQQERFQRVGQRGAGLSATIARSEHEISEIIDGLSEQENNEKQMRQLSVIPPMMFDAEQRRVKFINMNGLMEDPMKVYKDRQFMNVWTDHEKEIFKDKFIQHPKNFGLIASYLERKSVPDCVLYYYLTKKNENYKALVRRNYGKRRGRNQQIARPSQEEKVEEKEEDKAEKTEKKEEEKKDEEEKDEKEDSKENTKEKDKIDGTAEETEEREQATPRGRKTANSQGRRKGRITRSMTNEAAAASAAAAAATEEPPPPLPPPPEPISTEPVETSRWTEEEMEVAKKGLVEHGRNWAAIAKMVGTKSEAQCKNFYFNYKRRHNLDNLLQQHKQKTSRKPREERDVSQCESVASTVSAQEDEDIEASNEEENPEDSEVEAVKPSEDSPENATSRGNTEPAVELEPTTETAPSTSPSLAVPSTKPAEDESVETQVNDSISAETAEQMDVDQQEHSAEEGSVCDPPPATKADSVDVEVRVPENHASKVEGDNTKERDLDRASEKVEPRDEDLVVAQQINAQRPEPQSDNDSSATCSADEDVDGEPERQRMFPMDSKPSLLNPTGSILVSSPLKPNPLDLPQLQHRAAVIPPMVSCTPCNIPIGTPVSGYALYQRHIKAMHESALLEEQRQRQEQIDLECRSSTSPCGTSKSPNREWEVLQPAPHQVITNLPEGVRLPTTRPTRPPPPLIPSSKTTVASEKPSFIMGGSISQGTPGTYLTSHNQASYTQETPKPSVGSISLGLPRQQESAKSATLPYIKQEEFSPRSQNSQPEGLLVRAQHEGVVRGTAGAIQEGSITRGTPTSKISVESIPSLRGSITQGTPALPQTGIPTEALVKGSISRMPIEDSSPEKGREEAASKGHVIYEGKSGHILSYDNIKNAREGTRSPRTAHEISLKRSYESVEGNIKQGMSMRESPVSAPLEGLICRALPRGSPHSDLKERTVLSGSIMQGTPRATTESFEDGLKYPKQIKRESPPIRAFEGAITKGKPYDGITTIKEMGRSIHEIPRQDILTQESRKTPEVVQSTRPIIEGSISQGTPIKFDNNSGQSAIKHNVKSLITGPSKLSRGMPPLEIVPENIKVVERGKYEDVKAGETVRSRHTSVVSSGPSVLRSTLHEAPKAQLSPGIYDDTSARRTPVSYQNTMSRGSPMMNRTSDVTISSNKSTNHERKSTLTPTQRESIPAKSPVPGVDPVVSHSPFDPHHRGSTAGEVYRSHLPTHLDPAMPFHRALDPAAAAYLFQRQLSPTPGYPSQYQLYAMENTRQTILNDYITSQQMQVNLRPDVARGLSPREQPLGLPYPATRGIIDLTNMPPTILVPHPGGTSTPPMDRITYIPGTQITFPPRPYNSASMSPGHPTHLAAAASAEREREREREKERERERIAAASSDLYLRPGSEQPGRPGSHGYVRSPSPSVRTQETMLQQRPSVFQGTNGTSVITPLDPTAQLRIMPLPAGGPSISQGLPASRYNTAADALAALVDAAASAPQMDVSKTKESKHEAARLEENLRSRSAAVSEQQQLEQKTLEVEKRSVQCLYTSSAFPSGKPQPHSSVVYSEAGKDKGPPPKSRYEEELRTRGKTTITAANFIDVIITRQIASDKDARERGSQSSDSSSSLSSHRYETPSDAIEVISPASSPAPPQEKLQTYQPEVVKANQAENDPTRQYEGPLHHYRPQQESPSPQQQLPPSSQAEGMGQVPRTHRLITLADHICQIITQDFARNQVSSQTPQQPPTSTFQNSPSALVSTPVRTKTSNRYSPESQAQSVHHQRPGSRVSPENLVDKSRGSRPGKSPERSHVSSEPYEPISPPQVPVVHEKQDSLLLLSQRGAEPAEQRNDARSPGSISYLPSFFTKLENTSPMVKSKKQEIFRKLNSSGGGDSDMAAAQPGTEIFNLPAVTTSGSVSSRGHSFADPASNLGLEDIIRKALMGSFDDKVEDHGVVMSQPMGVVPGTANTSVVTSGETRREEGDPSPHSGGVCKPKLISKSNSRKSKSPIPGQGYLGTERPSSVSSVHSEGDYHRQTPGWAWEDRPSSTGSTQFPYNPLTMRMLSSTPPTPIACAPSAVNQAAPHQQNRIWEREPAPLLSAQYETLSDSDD
UniProt O75643, whole entry, looked up: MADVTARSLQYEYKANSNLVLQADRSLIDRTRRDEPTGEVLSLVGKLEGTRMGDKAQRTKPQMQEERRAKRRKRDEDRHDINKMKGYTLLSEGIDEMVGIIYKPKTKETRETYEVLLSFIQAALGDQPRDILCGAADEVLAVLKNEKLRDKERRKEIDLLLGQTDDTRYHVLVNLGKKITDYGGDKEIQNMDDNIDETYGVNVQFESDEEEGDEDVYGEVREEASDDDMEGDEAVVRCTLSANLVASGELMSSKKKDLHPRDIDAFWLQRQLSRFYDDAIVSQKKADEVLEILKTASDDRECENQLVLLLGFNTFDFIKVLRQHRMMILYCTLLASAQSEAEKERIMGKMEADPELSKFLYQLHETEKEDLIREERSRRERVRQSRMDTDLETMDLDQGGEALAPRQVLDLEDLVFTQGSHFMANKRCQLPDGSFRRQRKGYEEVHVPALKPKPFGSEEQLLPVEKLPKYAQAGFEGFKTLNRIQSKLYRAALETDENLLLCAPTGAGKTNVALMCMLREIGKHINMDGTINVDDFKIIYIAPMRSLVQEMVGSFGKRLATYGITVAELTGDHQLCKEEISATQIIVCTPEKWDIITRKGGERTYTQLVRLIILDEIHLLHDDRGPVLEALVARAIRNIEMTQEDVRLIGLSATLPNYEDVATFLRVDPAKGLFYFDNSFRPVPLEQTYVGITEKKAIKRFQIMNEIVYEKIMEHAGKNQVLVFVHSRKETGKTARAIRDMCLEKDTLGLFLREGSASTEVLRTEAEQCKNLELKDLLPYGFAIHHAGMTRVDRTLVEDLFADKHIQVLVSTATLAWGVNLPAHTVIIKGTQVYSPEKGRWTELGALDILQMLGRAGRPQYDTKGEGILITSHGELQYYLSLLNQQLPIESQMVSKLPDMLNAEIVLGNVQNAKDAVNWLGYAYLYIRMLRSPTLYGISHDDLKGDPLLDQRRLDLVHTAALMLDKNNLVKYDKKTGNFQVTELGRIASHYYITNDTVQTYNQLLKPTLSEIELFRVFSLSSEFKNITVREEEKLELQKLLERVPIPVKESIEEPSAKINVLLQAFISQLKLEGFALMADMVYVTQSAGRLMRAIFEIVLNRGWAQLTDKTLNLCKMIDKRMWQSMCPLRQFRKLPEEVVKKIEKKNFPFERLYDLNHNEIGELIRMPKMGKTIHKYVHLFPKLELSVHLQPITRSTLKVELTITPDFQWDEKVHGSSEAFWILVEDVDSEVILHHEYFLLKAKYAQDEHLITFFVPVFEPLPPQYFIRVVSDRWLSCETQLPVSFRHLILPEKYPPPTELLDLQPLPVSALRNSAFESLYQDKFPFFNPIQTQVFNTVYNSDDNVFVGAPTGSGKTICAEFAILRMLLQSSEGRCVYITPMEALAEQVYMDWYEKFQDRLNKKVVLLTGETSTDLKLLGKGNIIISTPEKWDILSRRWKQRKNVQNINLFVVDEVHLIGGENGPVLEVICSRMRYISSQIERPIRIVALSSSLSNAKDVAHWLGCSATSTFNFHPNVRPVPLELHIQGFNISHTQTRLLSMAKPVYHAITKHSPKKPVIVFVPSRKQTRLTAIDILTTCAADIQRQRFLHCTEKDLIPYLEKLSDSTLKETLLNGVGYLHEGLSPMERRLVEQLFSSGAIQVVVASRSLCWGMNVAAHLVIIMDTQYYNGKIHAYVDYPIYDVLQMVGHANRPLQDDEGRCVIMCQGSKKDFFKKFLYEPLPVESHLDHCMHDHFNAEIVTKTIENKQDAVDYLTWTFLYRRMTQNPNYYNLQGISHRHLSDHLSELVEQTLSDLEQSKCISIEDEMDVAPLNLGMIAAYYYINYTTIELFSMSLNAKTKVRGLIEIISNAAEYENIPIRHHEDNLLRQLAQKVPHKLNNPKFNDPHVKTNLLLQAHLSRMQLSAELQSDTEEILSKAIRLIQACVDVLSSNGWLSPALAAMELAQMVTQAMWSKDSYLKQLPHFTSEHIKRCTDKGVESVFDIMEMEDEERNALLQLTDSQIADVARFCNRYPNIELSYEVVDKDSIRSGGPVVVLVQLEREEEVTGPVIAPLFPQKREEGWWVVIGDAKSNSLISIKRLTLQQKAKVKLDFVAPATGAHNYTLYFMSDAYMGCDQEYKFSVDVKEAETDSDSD
UniProt O60942: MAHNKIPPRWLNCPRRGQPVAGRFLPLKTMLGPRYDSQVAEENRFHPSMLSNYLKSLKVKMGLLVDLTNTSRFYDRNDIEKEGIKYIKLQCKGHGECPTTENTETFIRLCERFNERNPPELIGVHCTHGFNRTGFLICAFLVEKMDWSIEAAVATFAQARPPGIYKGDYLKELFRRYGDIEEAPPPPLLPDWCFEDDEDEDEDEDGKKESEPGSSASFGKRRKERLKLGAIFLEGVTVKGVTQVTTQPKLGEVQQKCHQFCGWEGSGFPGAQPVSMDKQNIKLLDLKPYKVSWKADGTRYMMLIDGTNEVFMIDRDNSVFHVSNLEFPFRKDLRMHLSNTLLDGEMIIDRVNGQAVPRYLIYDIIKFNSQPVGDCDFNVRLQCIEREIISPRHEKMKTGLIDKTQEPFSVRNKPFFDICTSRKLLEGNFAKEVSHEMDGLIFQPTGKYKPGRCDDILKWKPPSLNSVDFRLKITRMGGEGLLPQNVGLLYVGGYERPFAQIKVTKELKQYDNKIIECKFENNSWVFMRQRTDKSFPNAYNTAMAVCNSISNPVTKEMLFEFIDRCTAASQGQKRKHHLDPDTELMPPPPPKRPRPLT
UniProt O75934: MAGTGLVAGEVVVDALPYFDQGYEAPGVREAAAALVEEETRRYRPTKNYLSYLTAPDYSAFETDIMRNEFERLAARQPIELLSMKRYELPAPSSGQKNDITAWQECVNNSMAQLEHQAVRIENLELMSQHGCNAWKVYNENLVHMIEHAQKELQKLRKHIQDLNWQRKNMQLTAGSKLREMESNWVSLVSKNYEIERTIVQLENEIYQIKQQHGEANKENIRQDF
UniProt O75818: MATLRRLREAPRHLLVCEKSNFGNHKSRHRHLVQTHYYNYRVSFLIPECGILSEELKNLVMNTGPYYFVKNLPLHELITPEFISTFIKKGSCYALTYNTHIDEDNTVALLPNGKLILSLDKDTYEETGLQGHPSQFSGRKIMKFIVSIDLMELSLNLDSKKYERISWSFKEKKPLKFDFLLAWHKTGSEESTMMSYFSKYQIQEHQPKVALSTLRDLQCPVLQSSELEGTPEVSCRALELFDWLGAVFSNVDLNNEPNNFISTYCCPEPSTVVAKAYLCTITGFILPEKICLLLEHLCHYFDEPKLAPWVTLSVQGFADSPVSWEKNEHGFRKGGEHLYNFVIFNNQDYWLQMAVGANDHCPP

log2 ratio of iodoacetamide-alkyne labeling, inactive:
ATP6V1G1 C69 (UniProt O75348) 0.555
NCK2 C297 (UniProt O43639) 0.211
PMPCB C419 (UniProt O75439) 0.112
NCOR1 C474 (UniProt O75376) 0.759
KPNA6 C208 (UniProt O60684) 0.479
KIF1C C198 (UniProt O43896) 0.155
TADA2A C20 (UniProt O75478) 0.0236
SNRNP200 C1580 (UniProt O75643) 0.0193
RECQL4 C208 (UniProt O94761) 0.996
RNGTT C419 (UniProt O60942) 0.533
EIF5B C635 (UniProt O60841) 0.158
TBC1D4 C316 (UniProt O60343) 0.877
PAPSS1 C207 (UniProt O43252) 0.102
ROCK2 C649 (UniProt O75116) 0.0353
EPB41L2 C232 (UniProt O43491) 0.584
SF3B1 C677 (UniProt O75533) 0.316
OFD1 C581 (UniProt O75665) 0.478
AKAP8 C631 (UniProt O43823) 0.0578
UniProt O43432_C638 0.00803
NCOR1 C1274 (UniProt O75376) 0.329
ZNF292 C1564 (UniProt O60281) 0.493
SNRNP200 C1278 (UniProt O75643) 0.11
UniProt O43432_C461 0.428
USO1 C303 (UniProt O60763) 0.712
FLNB C2501 (UniProt O75369) 0.346
GSTZ1 C205 (UniProt O43708) -0.00836
EIF5B C720 (UniProt O60841) 0.266
AKAP8 C351 (UniProt O43823) 0.201
UniProt O75934_C132 0.477
SNRNP200 C2011 (UniProt O75643) -0.137
FLNB C660 (UniProt O75369) 0.476
PTCD1 C183 (UniProt O75127) 0.469
ZFAND5 C76 (UniProt O76080) 0.28
ZC3H11A C209 (UniProt O75152) 0.569
PQBP1 C60 (UniProt O60828) -0.0484
RPP40 C49 (UniProt O75818) 0.0974
ZW10 C650 (UniProt O43264) 0.214

Taken from above for reference:
log2 ratio of iodoacetamide-alkyne labeling, inactive:
PMPCB C419 (UniProt O75439) 0.112
NCOR1 C474 (UniProt O75376) 0.759
